Assay results: patent US12590096B2, “Imidazo[2,1-f][1,2,4]triazin-4-amine as TLR8 agonists” (BeOne Medicines | GmbH, priority 2019, dated 2026)

By UniProt entry, the sequences of proteins in these tests, tags left out. Residues count along the entry.
UniProt Q9NR97, 27-1041 limits assumed: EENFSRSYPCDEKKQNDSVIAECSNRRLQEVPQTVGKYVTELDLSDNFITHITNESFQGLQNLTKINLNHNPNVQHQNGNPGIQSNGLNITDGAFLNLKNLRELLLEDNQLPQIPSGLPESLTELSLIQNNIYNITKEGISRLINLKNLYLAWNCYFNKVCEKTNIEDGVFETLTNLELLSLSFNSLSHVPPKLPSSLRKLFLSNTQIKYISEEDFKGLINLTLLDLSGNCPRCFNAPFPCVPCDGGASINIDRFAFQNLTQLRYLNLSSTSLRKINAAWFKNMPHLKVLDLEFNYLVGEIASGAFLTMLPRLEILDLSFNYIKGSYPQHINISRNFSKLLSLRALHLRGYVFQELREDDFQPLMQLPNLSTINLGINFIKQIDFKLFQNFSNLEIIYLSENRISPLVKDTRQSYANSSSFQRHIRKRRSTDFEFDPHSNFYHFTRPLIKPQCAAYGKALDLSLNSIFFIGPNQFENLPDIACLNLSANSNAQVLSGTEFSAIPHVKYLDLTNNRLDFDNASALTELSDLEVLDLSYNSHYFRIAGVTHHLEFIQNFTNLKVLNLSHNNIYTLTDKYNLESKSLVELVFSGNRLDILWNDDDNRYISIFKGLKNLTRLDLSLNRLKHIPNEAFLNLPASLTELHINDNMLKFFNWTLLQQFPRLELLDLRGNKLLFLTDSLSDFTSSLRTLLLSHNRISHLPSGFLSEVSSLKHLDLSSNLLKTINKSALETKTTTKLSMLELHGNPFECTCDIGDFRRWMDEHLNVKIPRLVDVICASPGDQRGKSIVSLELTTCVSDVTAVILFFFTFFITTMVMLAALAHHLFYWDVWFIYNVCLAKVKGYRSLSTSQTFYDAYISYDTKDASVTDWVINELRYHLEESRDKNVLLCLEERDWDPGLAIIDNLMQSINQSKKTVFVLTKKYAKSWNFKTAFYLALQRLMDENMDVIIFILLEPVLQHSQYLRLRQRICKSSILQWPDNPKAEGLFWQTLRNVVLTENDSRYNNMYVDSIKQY

Key:
[1] = target: human TLR 8 protein in HEK-blue hTLR 8 tool cell line (Homo sapiens, UniProt Q9NR97); experiment: TLR8 stimulation determined by HEK-Blue Detection (NF-κB/SEAP reporter); details: read-out: EC50 (nmol); HEK-Blue hTLR8 cells, 16 h incubation, relative to maximum activation by Resiquimod or motolimod
Source text: TLR8 Stimulation Determined by HEK-Blue Detection
This assay was designed to study the stimulation of human TLR 8 protein in HEK-blue hTLR 8 tool cell line by monitoring the activation of NF-κB. HEK-blue hTLR8 cells were obtained by co-transfection of hTLR8 gene and optimized secretory embryonic alkaline phosphatase (SEAP) reporter gene into HEK293 cells. SEAP reporter gene was put under the control of […] minimal promoter fused with five NF-κB and AP-1-binding sites. NF-κB and AP-1 were activated by stimulation with TLR 8 ligand, thus inducing the expression of SEAP. The level of SEAP can be easily determined by HEK-Blue Detection (a cell culture medium that allows real-time detection of SEAP). HEK-Blue Detection comprises all nutrients needed for cell growth and specific SEAP color substrates. The hydrolysis of substrate by SEAP produces purple/blue color which can be measured by spectrophotometer.
When growing to 50-80% confluence, HEK-Blue hTLR7/8 cells were plated into 96-well plates (costar 3599) at a density of 40,000 cells/well. Then, the compound serially diluted at 10 points with a final concentration ranging from 1 nM to 10 μm in 0.1% DMSO/HEK-Blue Detection was added. […] Optical density at 620-655 nm was read on BMG PHERAstar FSX instrument. The EC50 of each compound was determined by calculating the maximum activation percentage identified using Resiquimod or motolimod. […]

[2] = test system: PBMC (peripheral blood monocyte); experiment: PBMC determination: cytokines in culture supernatant measured by HTRF; details: human PBMC, 24 h
Description: Determination of PBMC (Peripheral Blood Monocyte) Cell Preparation, Separation and Culture
Human whole blood was collected from healthy volunteers using BD Vacutainer® Lithium Heparin Tubes. PBMCs were prepared using Ficoll separation medium (GE Healthcare) by SopMate™ (STEMCELL). The cell survival rate was over 85% as monitored by Countstar. PBMCs were cultured in RPMI 1640 (Gibco) 10% (v/v) FBS (Gibco), 1×MEM NEAA (Gibco), 1× GlutaMAX (Gibco), 1 mM sodium pyruvate (Gibco), 50 uM 2-mercaptoethanol (sigma), and 100 U/ml penicillin-streptomycin (Thermo fisher Scientific).
PBMCs were plated into 96-well plates (costar 3894) with a density of 2×10^5 cells/well. Then, TLR7/8 compound was added, and serial dilution was carried out at ten points. The final concentration in 0.1% DMSO/RPMI 1640 ranged from 1 nM to 10 μM. Then, the plates were incubated in 5% CO2 at 37° C. for 24 h.
HTRF (Homogeneous Time-Resolved Fluorescence)
After the specified time point, according to the manufacturers recommendations, the cytokines in the cell culture supernatant were measured by Human IL6 kit (cisbio) and Human TNF alpha kit (cisbio). The EC50 of each compound was determined by calculating the maximum activation percentage identified using Resiquimod or Motolimod.

EC50 [1]: 0.066 µM
Compound: CCC[C@H](C)Oc1nc(N)c2ncc(CC3CCN(CCCNC)CC3)n2n1
EC50 ([2]; read-out: IL6 (EC50), Human IL6 kit (HTRF)): 0.247 µM | EC50 ([2]; read-out: TNF-alpha (EC50), Human TNF alpha kit (HTRF)): 0.43 µM

Where two headings read alike, the source gives them in different places. The structures given here were assigned with low confidence; some may be wrong.
